Data as given in patent publication US20170189504A1, “NOVEL PEPTIDES AND COMBINATION OF PEPTIDES FOR USE IN IMMUNOTHERAPY AGAINST VARIOUS CANCERS” (immatics biotechnologies GmbH, priority 2015, published 2017).
For some assays here: For expression read-outs the peptide stands for its source gene, whose mRNA was measured; the gene is not named for every peptide.

Tests used:
HLA-A*24 = experiment: Identification and relative LC-MS quantitation of HLA-A*24-presented tumor-associated peptides on tissue samples (presentation profiles, Tables 14A, 14B, 16, FIG. 1); parameters: species or system human; key to Presentation score GC / Presentation score NSCLC / Presentation score PCA / Presentation score GB / Presentation score HCC / Presentation score RCC: specifically presented on tumors (++++); very highly over-presented on tumors compared to a panel of normal tissues (+++); highly over-presented on tumors compared to a panel of normal tissues (++); over-presented on tumors compared to a panel of normal tissues (+); conditions: for Peptide Presentation on cancer entities: Table 14A, HLA-A*24-binding tumor-associated peptides, cancer entities on which the peptide was found presented
source genes (mRNA) [1] = experiment: Gene and exon expression of source genes, TCGA tumor samples compared with normal tissue samples (Lonsdale, 2013) (Table 17); parameters: species or system human; conditions: for Over-expression category of source gene (target coverage), BLCA: BLCA = Bladder urothelial carcinoma (N = 408); for Over-expression category of source gene (target coverage), BRCA: BRCA = Breast cancer (N = 1104), tumors more than 2-fold above highest 75% percentile of normal tissues; for Over-expression category of source gene (target coverage), DLBC: DLBC = Lymphoid neoplasm diffuse large B-cell lymphoma (N = 48); for Over-expression category of source gene (target coverage), ESCA: ESCA = Esophageal cancer (N = 185); for Over-expression category of source gene (target coverage), KIRC: KIRC = Clear cell kidney carcinoma (N = 534); for Over-expression category of source gene (target coverage), KIRP: KIRP = Papillary kidney carcinoma (N = 291); for Over-expression category of source gene (target coverage), LAML: LAML = Acute Myeloid Leukemia (N = 173); for Over-expression category of source gene (target coverage), LUAD: LUAD = Lung adenocarcinoma (N = 517); for Over-expression category of source gene (target coverage), OV: OV = Ovarian serous cystadenocarcinoma (N = 309); for Over-expression category of source gene (target coverage), SKCM: SKCM = Skin cutaneous melanoma (N = 473); for Over-expression category of source gene (target coverage), STAD: STAD = Stomach adenocarcinoma (N = 415)
source genes (mRNA) [2] = experiment: Expression profiling of source genes by in-house RNASeq of tumor and normal tissues (Table 18, FIG. 2); parameters: species or system human; key: very highly over-expressed in tumors compared to a panel of normal tissues (+++); highly over-expressed in tumors compared to a panel of normal tissues (++); over-expressed in tumors compared to a panel of normal tissues (+); conditions: source gene of peptide; for Expression score NSCLC: non-small cell lung cancer (N = 11) vs panel of normal tissues; for Expression score PC: pancreatic cancer (N = 26) vs panel of normal tissues; for Expression score SCLC: small cell lung cancer (N = 10) vs panel of normal tissues

Row | Substance | Peptide Presentation on cancer entities (HLA-A*24) | Over-expression category of source gene (target coverage), BLCA (source genes (mRNA) [1]; same cutoff) | Over-expression category of source gene (target coverage), BRCA (source genes (mRNA) [1]) | Over-expression category of source gene (target coverage), DLBC (source genes (mRNA) [1]; same cutoff) | Over-expression category of source gene (target coverage), ESCA (source genes (mRNA) [1]; same cutoff) | Over-expression category of source gene (target coverage), KIRC (source genes (mRNA) [1]; same cutoff) | Over-expression category of source gene (target coverage), KIRP (source genes (mRNA) [1]; same cutoff) | Over-expression category of source gene (target coverage), LAML (source genes (mRNA) [1]; same cutoff) | Over-expression category of source gene (target coverage), LUAD (source genes (mRNA) [1]; same cutoff) | Over-expression category of source gene (target coverage), OV (source genes (mRNA) [1]; same cutoff) | Over-expression category of source gene (target coverage), SKCM (source genes (mRNA) [1]; same cutoff) | Over-expression category of source gene (target coverage), STAD (source genes (mRNA) [1]; same cutoff) | Expression score NSCLC (source genes (mRNA) [2]) | Expression score PC (source genes (mRNA) [2]) | Expression score SCLC (source genes (mRNA) [2]) | other results
1 | 180: peptide found in UGGT1 (gene looked up) (IYDDSFIRPVTF; listed as Homo sapiens) [compound 180] | NSCLC, HCC | B (>= 20% of tumors above the cutoff, but <50%) | A (>=50% of tumors above the cutoff) | C (>=5% of tumors above the cutoff, but <20%) | A (>=50% of tumors above the cutoff) | B (>= 20% of tumors above the cutoff, but <50%) | B (>= 20% of tumors above the cutoff, but <50%) | A (>=50% of tumors above the cutoff) | A (>=50% of tumors above the cutoff) | A (>=50% of tumors above the cutoff) | A (>=50% of tumors above the cutoff) | A (>=50% of tumors above the cutoff) | + | + | + | Presentation score HCC (HLA-A*24; HLA-A*24 peptides, hepatocellular carcinoma (N = 15) vs panel of normal tissues (N = 70)): ++++; Presentation score NSCLC (HLA-A*24; HLA-A*24 peptides, non-small cell lung cancer (N = 91) vs panel of normal tissues (N = 70)): ++++; Over-expression category of source gene (target coverage), CHOL (source genes (mRNA) [1]; CHOL = Cholangiocarcinoma (N = 36), same cutoff): B (>= 20% of tumors above the cutoff, but <50%); Over-expression category of source gene (target coverage), COAD (source genes (mRNA) [1]; COAD = Colon and rectal adenocarcinoma (N = 462), same cutoff): A (>=50% of tumors above the cutoff); Over-expression category of source gene (target coverage), GBM (source genes (mRNA) [1]; GBM = Glioblastoma multiforme (N = 169), same cutoff): A (>=50% of tumors above the cutoff); Over-expression category of source gene (target coverage), KICH (source genes (mRNA) [1]; KICH = Kidney chromophobe (N = 66), same cutoff): C (>=5% of tumors above the cutoff, but <20%); Over-expression category of source gene (target coverage), LGG (source genes (mRNA) [1]; LGG = Lower grade glioma (N = 534), same cutoff): B (>= 20% of tumors above the cutoff, but <50%); Over-expression category of source gene (target coverage), LIHC (source genes (mRNA) [1]; LIHC = Liver hepatocellular carcinoma (N = 374), same cutoff): B (>= 20% of tumors above the cutoff, but <50%); Over-expression category of source gene (target coverage), LUSC (source genes (mRNA) [1]; LUSC = Lung squamous cell carcinoma (N = 503), same cutoff): A (>=50% of tumors above the cutoff); Over-expression category of source gene (target coverage), PAAD (source genes (mRNA) [1]; PAAD = Pancreatic ductal adenocarcinoma (N = 179), same cutoff): B (>= 20% of tumors above the cutoff, but <50%); Over-expression category of source gene (target coverage), PRAD (source genes (mRNA) [1]; PRAD = Prostate adenocarcinoma (N = 498), same cutoff): B (>= 20% of tumors above the cutoff, but <50%); Over-expression category of source gene (target coverage), READ (source genes (mRNA) [1]; READ = Colon and rectal adenocarcinoma (N = 167), same cutoff): A (>=50% of tumors above the cutoff); Over-expression category of source gene (target coverage), UCEC (source genes (mRNA) [1]; UCEC = Uterine corpus endometrial carcinoma (N = 546), same cutoff): B (>= 20% of tumors above the cutoff, but <50%); Expression score CRC (source genes (mRNA) [2]; colorectal cancer (N = 20) vs panel of normal tissues): +; Expression score GBC_CCC (source genes (mRNA) [2]; gallbladder adenocarcinoma and cholangiocarcinoma (N = 3) vs panel of normal tissues): +; Expression score GC (source genes (mRNA) [2]; gastric cancer (N = 11) vs panel of normal tissues): +; Expression score GB (source genes (mRNA) [2]; glioblastoma (N = 24) vs panel of normal tissues): +; Expression score HCC (source genes (mRNA) [2]; hepatocellular carcinoma (N = 15) vs panel of normal tissues): +; Expression score UEC (source genes (mRNA) [2]; uterine cancer (N = 10) vs panel of normal tissues): +
2 | 223: peptide found in RNF213 (gene looked up) (KYIPYKYVI; listed as Homo sapiens) [compound 223] | NSCLC, HCC | C (>=5% of tumors above the cutoff, but <20%) | B (>= 20% of tumors above the cutoff, but <50%) | C (>=5% of tumors above the cutoff, but <20%) | A (>=50% of tumors above the cutoff) | B (>= 20% of tumors above the cutoff, but <50%) | B (>= 20% of tumors above the cutoff, but <50%) | A (>=50% of tumors above the cutoff) | C (>=5% of tumors above the cutoff, but <20%) | B (>= 20% of tumors above the cutoff, but <50%) | C (>=5% of tumors above the cutoff, but <20%) | A (>=50% of tumors above the cutoff) | + | + | + | Expression score BRCA (source genes (mRNA) [2]; BRCA tumors vs panel of normal tissues): +; Expression score OSCAR (source genes (mRNA) [2]; esophageal cancer incl. gastric-esophageal junction (N = 11) vs panel of normal tissues): +; Expression score NHL (source genes (mRNA) [2]; non-Hodgkin lymphoma (N = 10) vs panel of normal tissues): +; Expression score OC (source genes (mRNA) [2]; ovarian cancer (N = 12) vs panel of normal tissues): ++
